Experimental data as given in patent US9126985B2, “Tetra- and pentasubstituted benzimidazolium compounds” (Boehringer Ingelheim International GmbH, priority 2013, dated 2015).

By UniProt entry, the sequences of proteins in these tests, tags left out.
UniProt Q61180, whole entry: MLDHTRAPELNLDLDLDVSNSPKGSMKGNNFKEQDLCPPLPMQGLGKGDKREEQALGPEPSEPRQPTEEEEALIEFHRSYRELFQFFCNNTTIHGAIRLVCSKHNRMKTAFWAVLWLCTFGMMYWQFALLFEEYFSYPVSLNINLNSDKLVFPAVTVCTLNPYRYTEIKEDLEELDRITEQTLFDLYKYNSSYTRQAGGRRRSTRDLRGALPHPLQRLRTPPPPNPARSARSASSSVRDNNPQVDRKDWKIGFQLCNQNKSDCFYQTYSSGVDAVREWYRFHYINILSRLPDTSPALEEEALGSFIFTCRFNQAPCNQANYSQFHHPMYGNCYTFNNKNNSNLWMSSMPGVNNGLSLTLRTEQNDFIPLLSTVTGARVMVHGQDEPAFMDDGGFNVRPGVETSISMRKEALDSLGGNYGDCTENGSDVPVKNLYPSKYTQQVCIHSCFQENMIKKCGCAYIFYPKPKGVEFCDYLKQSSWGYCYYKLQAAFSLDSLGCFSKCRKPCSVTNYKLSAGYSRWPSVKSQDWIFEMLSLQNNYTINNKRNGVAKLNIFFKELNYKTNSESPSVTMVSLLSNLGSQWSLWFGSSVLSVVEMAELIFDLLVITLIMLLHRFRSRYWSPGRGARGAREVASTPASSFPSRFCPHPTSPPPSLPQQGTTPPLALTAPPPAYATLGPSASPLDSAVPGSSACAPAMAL
UniProt Q9WU38, whole entry: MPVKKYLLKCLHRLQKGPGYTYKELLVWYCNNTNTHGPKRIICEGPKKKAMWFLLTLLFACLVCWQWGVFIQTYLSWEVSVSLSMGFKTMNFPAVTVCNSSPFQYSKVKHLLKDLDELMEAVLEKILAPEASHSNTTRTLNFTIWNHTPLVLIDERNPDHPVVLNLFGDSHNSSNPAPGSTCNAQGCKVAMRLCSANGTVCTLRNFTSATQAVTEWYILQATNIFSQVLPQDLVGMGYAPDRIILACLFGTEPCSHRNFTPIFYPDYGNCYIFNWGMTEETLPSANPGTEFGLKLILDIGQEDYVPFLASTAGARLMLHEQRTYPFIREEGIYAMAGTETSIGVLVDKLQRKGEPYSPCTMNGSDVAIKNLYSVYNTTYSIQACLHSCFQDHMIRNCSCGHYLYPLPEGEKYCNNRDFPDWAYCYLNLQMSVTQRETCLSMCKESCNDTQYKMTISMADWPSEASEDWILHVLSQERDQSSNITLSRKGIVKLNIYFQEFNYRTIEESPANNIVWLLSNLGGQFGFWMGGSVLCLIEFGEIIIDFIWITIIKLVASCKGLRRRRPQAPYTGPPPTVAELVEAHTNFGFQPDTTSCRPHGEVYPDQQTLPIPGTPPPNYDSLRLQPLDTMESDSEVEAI
UniProt Q9WU39, whole entry: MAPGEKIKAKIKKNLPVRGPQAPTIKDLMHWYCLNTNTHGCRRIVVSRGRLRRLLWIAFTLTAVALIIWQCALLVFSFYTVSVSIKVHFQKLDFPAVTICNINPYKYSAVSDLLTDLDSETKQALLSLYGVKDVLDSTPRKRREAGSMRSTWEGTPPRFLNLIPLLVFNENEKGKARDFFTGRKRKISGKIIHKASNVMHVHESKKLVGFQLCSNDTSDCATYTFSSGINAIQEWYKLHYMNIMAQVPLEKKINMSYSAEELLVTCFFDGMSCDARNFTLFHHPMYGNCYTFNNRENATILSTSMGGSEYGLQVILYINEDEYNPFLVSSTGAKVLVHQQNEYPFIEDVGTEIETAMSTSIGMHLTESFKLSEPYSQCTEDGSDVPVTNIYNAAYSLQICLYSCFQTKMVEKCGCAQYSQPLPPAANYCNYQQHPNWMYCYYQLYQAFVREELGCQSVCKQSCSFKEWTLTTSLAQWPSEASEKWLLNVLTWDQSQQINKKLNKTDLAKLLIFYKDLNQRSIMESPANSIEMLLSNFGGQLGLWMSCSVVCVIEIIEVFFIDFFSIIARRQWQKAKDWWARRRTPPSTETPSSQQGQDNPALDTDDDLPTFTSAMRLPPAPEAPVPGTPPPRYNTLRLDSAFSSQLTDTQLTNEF

Assays:
[1] = target: ENaC (Epithelial Sodium Channel) (Mus musculus, UniProt Q61180+Q9WU38+Q9WU39); assay: Ussing Chamber assay: inhibition of amiloride sensitive short circuit current in M-1 cells; conditions: Mouse kidney M-1 cells on transwell filters, compound added to apical solution, 37° C.
Method: Mouse kidney M-1 cells were cultivated in DMEM containing 5% FCS and 5 μM dexamethasone for 10 to 12 days on polyester transwell filters. Filters were inserted into a teflon-coated well-plate which fit into the ussing chamber system. Prior to measurement the medium of M-1 cells was replaced with Caco-2 transport buffer (Invitrogen, Germany). During measurements, the Ussing chamber temperature was kept at 37° C. Short circuit currents (I_sc) were measured in the voltage-clamp mode with the software package Lab View for data acquisition and analysis. The transepithelial electrical resistance (TEER) was determined by the application of voltage steps of ±5 mV every 5 sec. Compounds were administered at a final concentration of 3 μM or at increasing concentrations (1-3-10 μM) to the apical solution. At the end of each experiment the amiloride sensitive I_SC was measured by adding 3 μM amiloride to the apical compartment. Results are expressed as inhibition in percent of the amiloride effect or as IC50.
With the example compounds given above, the following IC50 values were determined in the Ussing Chamber assay: […]

[2] = tested on: CALU-3 cells; assay: Permeability in CALU-3 cells; conditions: CALU-3 cell monolayers, pH 7.4, 37° C., 10 μM compound; for Papp, AB: apical-to-basal; for Papp, BA: basal-to-apical
Method: Permeability in CALU-3 Cells:
Permeability measurements across polarized, confluent CALU-3 cell monolayers grown on permeable filter supports are used to provide information on the potential of a compound to pass the lung epithelium. Apparent permeability coefficients (Papp) of the compounds across the CALU-3 cell monolayers are measured (pH 7.4, 37° C.) in apical-to-basal (AB) and basal-to-apical (BA) transport direction.
CALU-3 cells (1-2×10^5 cells/1 cm^2 area) are seeded on filter inserts (Costar transwell polycarbonate filters, 0.4 μm pore size) and cultured (for 10-12 days DMEM) until tight monolayers are formed. Compounds of interest are dissolved in appropriate solvent (DMSO, 10 mM stock solution). Stock solutions are diluted with HTP-4 buffer (128.13 mM NaCl, 5.36 mM KCl, 1 mM MgSO4, 1.8 mM CaCl2, 4.17 mM NaHCO3, 1.19 mM Na2HPO4×7H2O, 0.41 mM NaH2PO4×H2O, 15 mM HEPES, 20 mM glucose, 0.25% BSA, pH 7.4) to prepare the transport solutions (10 μM compound, final DMSO<=0.5%). The transport solution (TL) is applied to the apical or basolateral donor side for measuring A-B or B-A permeability (3 filter replicates), respectively. The receiver side contains the same buffer as the donor side. After 30 min of accommodation, samples are collected at the start t0=0 min and at the end of the experiment tn=90 min from the donor and at 0, 30, 60, and 90 min also from the receiver chamber. Volume removed is replenished by HTP-4 buffer. The compound concentration in the samples is measured by HPLC-MS/MS or scintillation counting. The permeability coefficient (Papp) and efflux ratio are calculated according to: Papp [cm/s]=(concentration receiver [nM]*volume receiver [mL]/time interval [sec])*(1/filter area)*(1/donor concentration [nM])
With example compounds given above, the following permeability values were determined in the CALU-3 cells assay: […]

Row | Structure (SMILES) | pIC50 ([1]; tested form: trifluoroacetate) | Papp, AB ([2]; tested form: trifluoroacetate) | Papp, BA ([2]; tested form: trifluoroacetate) | pIC50 ([1]; tested form: formate) | Papp, AB ([2]; tested form: formate) | Papp, BA ([2]; tested form: formate)
1 | CCn1c(CNC(=O)c2nc(Cl)c(N)nc2N)[n+](CCOCCOCCO)c2ccc(OCP(C)(C)=O)cc21 | 7.89 | 0.4 10^−6 cm/s | 0.1 10^−6 cm/s |  |  | 
2 | CCOP(=O)(CCCOc1ccc2c(c1)n(CC)c(CNC(=O)c1nc(Cl)c(N)nc1N)[n+]2CCCC#N)OCC | 8.30 | 0.1 10^−6 cm/s | 0.4 10^−6 cm/s |  |  | 
3 | CCNC(=O)COc1ccc2c(c1)[n+](C1CCOCC1)c(CNC(=O)c1nc(Cl)c(N)nc1N)n2CC |  |  |  | 9.00 |  | 
4 | CCOP(=O)(O)CCCOc1ccc2c(c1)n(CC)c(CNC(=O)c1nc(Cl)c(N)nc1N)[n+]2CCCC#N | 7.72 | 0.5 10^−6 cm/s | 0.1 10^−6 cm/s |  |  | 
5 | CCNC(=O)COc1ccc2c(c1)n(CC)c(CNC(=O)c1nc(Cl)c(N)nc1N)[n+]2C1CCOCC1 |  |  |  | 8.70 | <0.5 10^−6 cm/s | 0.2 10^−6 cm/s

pIC50: −log10 of the molar value. Structures were worked out from names or drawings and are uncertain.
